The campaign covered roughly 31,000 sequences. About 1,400 (4.5%) were called active.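 Rule for the calls: active = median seed-adjusted z-score above 1 or below -1; inactive = the rest.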 The list shows a part of the results.

This assay is described as follows: Novel Modifiers of Survival Motor Neuron (SMN) Protein: Gene Identification via Genome-wide siRNA Screen.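 Note: luminescence tracks full-length SMN protein made from the SMN2 reporter.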 As to conditions: HEK293T SMN2-luciferase reporter, siRNA knockdown, 72 h; actives lie on both sides. Put shortly:
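Genome-wide siRNA screen (10418 genes, 3 siRNAs each, 1 pmol per well) by reverse transfection in HEK293T cells stably carrying an SMN2-luciferase reporter; luminescence after 72 hours, normalized to negative-control siRNA, log10-transformed, MAD-scored.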
GCAAGAUGCUAUCCAUGCATT against ATN1: the median seed-adjusted z-score was inactive: -0.357.
The result for CCAUGGGAAUGGUGGAUAUTT against SERPINB3 reads inactive: -0.373; that for GAGUGACUGUAGAGCCUCATT against GCS1, inactive: 0.819; that for UGUUGAACAUGGAAUAAUATT against EFHA1, inactive: 0.0629.
As for AAUGUAUCCUGAUUACUUUTT against NDUFB9, the median seed-adjusted z-score was inactive: -0.982.
Turning to CGUUUUAGGUGGAAGACUATT against TRMT11, the median seed-adjusted z-score is inactive: -0.707.
For GGGUGAAGUUCUACAUGCATT against AIFM3, the median seed-adjusted z-score is inactive: -0.727.
With GGUGUUGAGUUUCUGCAAATT against CHMP1A, the median seed-adjusted z-score was inactive: 0.
With GAGAUAGACUUGCUGAGCATT against TRIP6, the median seed-adjusted z-score was active: 1.03.
In the case of ACCUGACCGUGUCGCUAUATT against DHRSX, the median seed-adjusted z-score is inactive: -0.686.
Consider AGCGGUCCCGAACCAGUUATT against HOXC5, for which the median seed-adjusted z-score was inactive: 0.507.
In the case of CCAUAUAUCCGAAUGACCATT against RBM22, the median seed-adjusted z-score is inactive: 0.0259.
As to AAACCCAUCUAUUCCUACATT against FOXN1, the median seed-adjusted z-score is inactive: 0.226.
As for GGAUGUGAAGAGUAGUAAATT against ARAP2, the median seed-adjusted z-score was inactive: 0.388.
On to AAAGAGAGGGUACAACUAATT against GPATCH4, for which the median seed-adjusted z-score was inactive: -0.519.
Turning to GGACAGUACCAUUCGCCUATT against ACOXL, the median seed-adjusted z-score was inactive: 0.53.
The result for ACUUGAAUCUUAGCAUUCATT against RAD9A reads inactive: -0.0564; that for GGACAGUAGUGUGCAACGATT against LRIT1, inactive: -0.611.
Take AGAACAAGCUUAUCACUGUTT against TUSC4: the median seed-adjusted z-score is inactive: 0.312.
For CCUGUUUGAUAAAAGAAUATT against SFRS2, the median seed-adjusted z-score is inactive: 0.263.
For CCUCUAACCUCAAAGCGAUTT against SYT3, the median seed-adjusted z-score is inactive: 0.221.
With GGACUAUCUAAAACAAUAATT against ALCAM, the median seed-adjusted z-score was inactive: -0.743.
As to GGAACAAGCUGUGAUCCCATT against OTUD7B, the median seed-adjusted z-score was inactive: 0.226.
GGAUCGUGGGAGCUAAGAATT against ZNF512: the median seed-adjusted z-score is inactive: -0.675.
The result for CCCAUGUCAUGGAUGCCUGTT against NSUN5C reads inactive: -0.153; that for CGUAUUAUAUGAAACGGAATT against GUCY1A3, inactive: 0.187.
For the sequence GAAACGGGCUUAUAGCAAATT against EPHB1, the median seed-adjusted z-score is inactive: -0.0232.
As to GCCGAUUCUCAGUAAGUUATT against LCP2, the median seed-adjusted z-score was inactive: -0.826.
Turning to AAAGCAAGCUGUUACAAAATT against ACAT2, the median seed-adjusted z-score is active: 1.25.
Consider GUCCGAGCCCUGAAGAACATT against NACA, for which the median seed-adjusted z-score was inactive: 0.117.
Take GACCAUUCGUACUCCUUGUTT against THAP11: the median seed-adjusted z-score was active: -1.36.
In the case of GUAUGAGUGUGACCGGGAATT against MRC2, the median seed-adjusted z-score is active: -1.34.
As to GGAUUAUCAUGUAGUCCUATT against MEX3C, the median seed-adjusted z-score was inactive: 0.0977.
The result for GGUGAUGACUGCUUGAUGATT against PSKH1 reads active: -2.03.
As to GGAUUCUCCACAAUCAAUATT against PCMT1, the median seed-adjusted z-score is inactive: 0.139.
As to GGAAAGAACUACCUCCUGATT against TREH, the median seed-adjusted z-score was inactive: 0.396.
Turning to GGAGAUCUGCUACUAAACATT against PSMD6, the median seed-adjusted z-score is active: -1.03.
In the case of CUAUCUAUCUGGAAUCAGUTT against KDELR3, the median seed-adjusted z-score was inactive: 0.476.
Turning to CCACGAGACUUGAACUUCATT against ANGPT2, the median seed-adjusted z-score was inactive: -0.163.
In the case of UCUGAAUACCAAAUACUAATT against FCGR1A, the median seed-adjusted z-score was inactive: 0.869.
The result for CCAUCGAGUUCAUCGAUAATT against DUSP8 reads inactive: -0.0326.
The result for GGAGUGCGAUGGACAAUUUTT against LCT reads inactive: 0.411; that for CCUACAAUUUGGAUACAGATT against P4HA1, inactive: -0.293.
On to GAAUCUGACUAUACCAACATT against LOX, for which the median seed-adjusted z-score is inactive: -0.175.
The result for ACAUCAAAACACCAGCUUUTT against YBX2 reads inactive: 0.362; that for GGAGAUUCAGAUCCUCAAATT against JAK3, inactive: -0.0926; that for GGAUGUUCGUAUACCAUCATT against CROT, inactive: -0.612.
The result for GGAACUAUCCAUACAGCGATT against LIPE reads inactive: -0.276; that for CUCUACACCGUGUACAUCATT against CHRM4, inactive: -0.856; that for CCACUAAGCACUUCAAUGATT against RASGRF1, inactive: 0.
The result for GCAACAAUGUUACUCGAUATT against LPHN2 reads inactive: -0.817.
As for GCAUGACUAUGUCAAGAAATT against MCM3, the median seed-adjusted z-score was inactive: 0.339.
Take GCACUGUGCCCAACUAUGATT against PI4KB: the median seed-adjusted z-score is inactive: 0.105.
The result for GGACCCAUCACUCCCAUUATT against TGIF2 reads inactive: -0.304; that for AGGGCAUCGACAUUCCGGATT against DUX5, inactive: -0.295.
Turning to CCUCCGUUAUAAACCUGUUTT against SLC19A2, the median seed-adjusted z-score was inactive: -0.679.
As to CCCUUAAACUAUUAGCCCATT against MYT1L, the median seed-adjusted z-score was inactive: -0.43.
In the case of CGGCAAGGAUGCAAGUGAATT against HIC2, the median seed-adjusted z-score is inactive: -0.283.
The result for GAAACCAUCGGGAAGAUUUTT against VWA2 reads inactive: 0.584; that for CCACUACGUCCUCAAUGUATT against CLSTN1, inactive: 0.0811.
The result for GGAGAGUAAGGGUCCUAGATT against LINGO4 reads inactive: 0.388; that for CUAGUGGGCUGUAUCCUUATT against AMIGO1, inactive: 0.175.
On to GAUGAAGAACGGUACCAGATT against EPHA1, for which the median seed-adjusted z-score was inactive: -0.092.
As for GGAGCACGAAAGUCAAAGATT against NR3C2, the median seed-adjusted z-score is inactive: -0.0918.
Take GACUGACUCAUGAUCCAAATT against MAN1A1: the median seed-adjusted z-score was inactive: 0.
Take GCGUGUUCCCAAUAGUGUATT against OGT: the median seed-adjusted z-score is inactive: 0.411.
GACAAGAUCUUGUAAGCAUTT against USP44: the median seed-adjusted z-score is inactive: 0.374.
The result for UCUGUCUCCUAGAAUCUUATT against ZFP36 reads inactive: 0.106; that for GGUGAUGAAUUUAGCUUAATT against SERPINI2, inactive: -0.174.
The result for AGGGAGCAAAUGAACCUGATT against VIP reads active: 1.52.
The result for GGAAUGCACCCAGAUCAAATT against TFAP2D reads inactive: 0; that for GGCUAUACCUACAAUAUGUTT against TOX3, inactive: -0.216; that for GAAUUUGUAUGAGAGCAUUTT against CYTH3, inactive: 0.196.
As to GGGUAUGAGAUUUCACAUUTT against AFAR3, the median seed-adjusted z-score is inactive: 0.0433.
In the case of GGAUGGAACUUAUUGGACUTT against AMD1, the median seed-adjusted z-score is inactive: -0.211.
On to GCAGCACUGUUACUCAGUUTT against GLRA3, for which the median seed-adjusted z-score is inactive: 0.0585.
Consider GGCUGUACAUCUGGACCAATT against NFKBIE, for which the median seed-adjusted z-score is inactive: -0.452.
The result for GGACUAUCUACAUUCCGGATT against AKT3 reads inactive: -0.0936; that for GACUUUCGACUUUGAUGAATT against TRUB1, inactive: 0.561; that for GAUCGGCCUGAGUCUAAUATT against SLC15A2, inactive: 0.322.
As to GGAAGACUCUUUUUAGAGATT against SLC25A20, the median seed-adjusted z-score was inactive: -0.183.
As for GGUAAAUCUUACAGAUAUATT against ZBTB25, the median seed-adjusted z-score was inactive: 0.
On to CAAGCGCAAGAGACACUGATT against ALPL, for which the median seed-adjusted z-score was inactive: -0.229.
With CCCUGGAUCUGUUCAGACATT against SLC22A13, the median seed-adjusted z-score was inactive: 0.904.
Take CCAUUCUGGUGGACCUGGATT against TUBB3: the median seed-adjusted z-score is inactive: 0.208.
The result for GCACCAGCAUCGUUGUAGATT against CYP4B1 reads inactive: -0.663; that for CGAUCAACCAAACUCAUUATT against ATP6V1C2, inactive: 0.2.
For CCUGGGCUAUGCAACAAAATT against HAS2, the median seed-adjusted z-score is inactive: 0.354.
As for GGACAAAUAAUGUAUUUGATT against GSPT1, the median seed-adjusted z-score was inactive: -0.761.
Consider GAGCCUCAGUCACCUCAAATT against PLAGL1, for which the median seed-adjusted z-score was inactive: 0.0885.
The result for GCUCCGCCUUGGGAAAACATT against APOA1 reads inactive: -0.239; that for GGACACCAAUAGAGACGGATT against NCALD, inactive: 0.
The result for CUUUGUCACUGCACCUAAATT against ACE2 reads inactive: -0.164; that for GCCUUAAUCCCAAAACGAATT against TBX5, inactive: 0.143.
Regarding GAUUCUAUCCAAAUUCCAATT against DMD, the median seed-adjusted z-score is inactive: -0.626.
The result for GGGCGAGUAUUAUGACUAUTT against MYO15A reads inactive: 0.0508; that for CCAAGAAGAUGGAUGAGUATT against AHCYL2, inactive: 0.415; that for CAACCUCUGUCAGUAGUCUTT against ZFAND6, inactive: -0.181.
GACCACAACUUCUUCAGUATT against DHFRL1: the median seed-adjusted z-score is inactive: -0.646.
On to GGUGUUCGAUGGAGAUGAATT against SMOC1, for which the median seed-adjusted z-score is inactive: 0.0453.
The result for GCGCAGACGUGAUUGUCAATT against DAO reads inactive: -0.00887; that for GCGUGUACACUGAGGAAUATT against MYO19, inactive: 0.0987.
As to GGUUCGGAACAGCAAUAUATT against WWP1, the median seed-adjusted z-score was inactive: -0.442.
As to CCACUGCAAUCGUGUUAUATT against LIMS1, the median seed-adjusted z-score was inactive: -0.313.
As to CACUAAACAUCGAAUAAGATT against ZNF616, the median seed-adjusted z-score was inactive: -0.0874.
The result for GAUUGUGGAUGUAAUAGGATT against PRKAR2A reads inactive: 0.213; that for ACAAGUAUGUGAACAUGCATT against NDUFS8, inactive: -0.467.
As to AGAUGAAUGUGAAGGUGCUTT against MYL6, the median seed-adjusted z-score was inactive: -0.228.

These data come from PubChem BioAssay AID1347426 (Functional Genomics Laboratory (NCATS/FGL), 2020).
